# Laboratory results from PubChem BioAssay AID1347423 (Functional Genomics Laboratory (NCATS/FGL), 2020).
# The whole screen tested about 52,000 sequences, of which about 210 (0.4%) were called active.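 How the source made its calls: active means gene whose silencing raises cell survival under the drug, median off-target-corrected z-score across its silencing RNAs 2 or more; inactive means the rest.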 Some of the results follow.
# Assay: Resistance to Poly (ADP-Ribose) Polymerase inhibitor: Gene Identification via Genome-wide siRNA Screen
# Conditions: mouse BRCA2 R2336H ES cells, olaparib, CellTiter-Glo viability; stronger effect = higher value
# Summary of the method: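 Mouse BRCA2 R2336H ES cells were reverse-transfected with siRNA (20 nM final), treated at 48 h with 500 nM olaparib, and read by CellTiter-Glo after 72 h. Scores: MAD-based z per siRNA, median per gene, seed off-target correction.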
row,Sequence,z-score
1,GCUUAUAGUUCAGUUUUUGTT against 2810013E07Rik,inactive: -0.504
2,GGACAGAACUGGCUUCCAUTT against Ctrb1,inactive: 2.05
3,GCAUGAAUUUCGACAACCCTT against Lrp8,inactive: 0.838
4,CCAAGAGGGCGAUCAAAUGTT against Grtp1,inactive: -1.83
5,GCAUCACGUAUGUGAUUUGTT against 4921520P21Rik,inactive: 0.914
6,GGGAAAUCACUGGACCAGUTT against BC021513,inactive: 0.324
7,GGCAGACAUGAAAUGCAUUTT against BC010311,inactive: 0.427
8,GGACUUCGAGGACUACAUUTT against Abca3,inactive: -1.52
9,GCCAGAUUUCCGUCAGAACTT against Scube3,inactive: -1.92
10,GGAAUAGUGAAGGUACUUUTT against Cer1,inactive: -0.0479
11,GGCUGAACUAAACUCCACCTT against 1810011O16Rik,inactive: 0.861
12,GGCCUUUUAAAUGUGUCCUTT against 6430601A21Rik,inactive: 1.55
13,GCUUAACUGCCAUUCUGAATT against BC032265,inactive: 0.113
14,GCUAAAUGUUCUUCCAUUATT against Pola1,inactive: -1.13
15,GGAAUUAUGAUGUAGACAGTT against 4931406P16Rik,inactive: 1.8
16,GGAUUUGAGGUUCAUAUAATT against Ccrk,inactive: 0.857
17,GGAGACACGGAAGCCUGAATT against Klra4,inactive: -2.75
18,CCGUGGGCAAACAAAUCUUTT against Hoxa3,inactive: -0.289
19,CCUAAUAAAAUCGAAACAGTT against Alox15b,inactive: -2.01
20,GGAUACGCUUGUCCCACCATT against Mdm1,inactive: -1.86
21,CCCUCAGUUUUACUGUUUATT against Pip5k2a,inactive: 0.307
22,CCAUCAGCUUUGCAGGAUGTT against Olfr1410,inactive: -0.631
23,CCAAAUCUGGACGGCAAAATT against Sdc1,inactive: -2.22
24,CGGGCCAUUAACAACCUCUTT against 4930433I11Rik,inactive: 1.09
25,CCCUACCCAGUUUCAGUUGTT against Phf12,inactive: -0.0533
26,GCGACUUAUGAAAUACUGGTT against Ache,inactive: -0.689
27,GGCCAGAACCACCAAAGAATT against 3110050N22Rik,inactive: -1.52
28,GGAGGUGCGCUUCUUUAACTT against Chst5,inactive: 1.44
29,GGACUUCUUCUUGUACAACTT against Capn3,inactive: 0.356

# A run of entries of the results above, as a working copy:
row,Sequence,z-score
2,GGACAGAACUGGCUUCCAUTT against Ctrb1,inactive: 2.05
3,GCAUGAAUUUCGACAACCCTT against Lrp8,inactive: 0.838
